# From patent US6025365A, “Chelerythrine and radiation combined tumor therapy” (Arch Development Corp., priority 1997, dated 2000)
# For at least one compound, name, drawing or mass did not settle the structure.
# Key:
# [1] = system: SQ-20B cells; assay: Viability by propidium iodide exclusion and FACS; conditions: chelerythrine above 2.5 μM
# Experimental: Cells, 2.5-3.5×10^5, were cultured in 24-well tissue culture plates for all experiments following standard procedures as previously described (Chmura et al., 1996a; 1996b). Cells were treated with varying concentrations of chelerythrine, incubated for 30 minutes at 37° C. and then irradiated. Radiation for all samples was delivered using a ^60 Co-irradiator (Gammacell 220, Atomic Energy of Canada) at a dose rate of 2.0 Gy/sec. After the indicated time points, cells were harvested, washed once in PBS, and resuspended in PBS containing […] propidium iodide. […] Cells undergoing apoptosis also shrink in size. Cells were analyzed via flow cytometry (FACS) following standard procedures as described in (Chmura et al., 1996a; 1996b) on a FACScan (Becton-Dickson) using Lysis II software.
# [2] = system: SQ20-B cells; assay: Cell cycle (G2/M phase) in SQ20-B cells; type: cell-based, human; conditions: 0.5-1 μM chelerythrine
# [3] = system: isolated WEHI-231 JM nuclei; assay: Apoptotic changes in isolated nuclei; type: cell-based, murine; conditions: chelerythrine chloride
smiles,measurement,setting,value
"COc1ccc2c(c[n+](C)c3c4cc5c(cc4ccc23)OCO5)c1OC [chelerythrine, 1,2-dimethoxy-12-methyl[1,3]benzodioxolo[5,6-c]phenanthridinium]",combined effect of IR and chelerythrine on killing,[1],greater than additive killing
same,G2/M phase in irradiated cells,[2],failed to shorten the G2/M phase
same,time to DNA condensation and nuclear disintegration,[3],≤ 5 h
